Results are given in words; binding and its absence hold for the method and conditions named. In cells and extracts the contact can be indirect. Here binding means that the protein was enriched with, or labelled near, the bait; the list need not be complete. A no says only that the protein was not detected with the bait.
Columns and labels:
[1] = target: LCP1TID (Chlamydomonas reinhardtii); assay: proximity labelling
[2] = target: CDJ5-WTTID (Chlamydomonas reinhardtii); assay: proximity labelling

| Binder | binding [1] | binding [2] |
| --- | --- | --- |
| PSAH1 (protein, UniProt P13352 31-130) KYGENSRYFDLQDMENTTGSWDMYGVDEKKRYPDNQAKFFTQATDIISRRESLRALVALSGIAAIVTYGLKGAKDADLPITKGPQTTGENGKGGSVRSRL | no binding |  |
| ycf3/pafI (protein, UniProt O20031 1-172) MPRTQRNDNFIDKTFTVVADILLKVLPTSQREKQAFSYYRNGMSAQAEGEYAEALQNYYEAMRLEVDAYDRSYILYNIGLIHTSNGEHGRALEYYYQALERNPSLSSALNNIAVIYHYRGEQAIENGQSEISQILFEKAADYWKEAIRLAPTNYIEALNWLKMTGRLTGLAT |  | no binding |

— paper doi:10.1101/2025.08.22.671721
